Assay results published in patent publication US20140011746A1 (WISCONSIN ALUMNI RESEARCH FOUNDATION, published 2014).
No constants are given. Whether binding was seen depends on the method and setting. For some of these results: Binding seen in cells or lysates may run through a third protein. Some entries that bind do so weakly or less than the wild type. Each block holds one binder with its values, some of them ahead of it.

The chains behind the UniProt entries cited, without tags or fusion partners. Where a name states a change or a piece, a line headed by the entry shows the natural chain unless it says otherwise.
UniProt P26006: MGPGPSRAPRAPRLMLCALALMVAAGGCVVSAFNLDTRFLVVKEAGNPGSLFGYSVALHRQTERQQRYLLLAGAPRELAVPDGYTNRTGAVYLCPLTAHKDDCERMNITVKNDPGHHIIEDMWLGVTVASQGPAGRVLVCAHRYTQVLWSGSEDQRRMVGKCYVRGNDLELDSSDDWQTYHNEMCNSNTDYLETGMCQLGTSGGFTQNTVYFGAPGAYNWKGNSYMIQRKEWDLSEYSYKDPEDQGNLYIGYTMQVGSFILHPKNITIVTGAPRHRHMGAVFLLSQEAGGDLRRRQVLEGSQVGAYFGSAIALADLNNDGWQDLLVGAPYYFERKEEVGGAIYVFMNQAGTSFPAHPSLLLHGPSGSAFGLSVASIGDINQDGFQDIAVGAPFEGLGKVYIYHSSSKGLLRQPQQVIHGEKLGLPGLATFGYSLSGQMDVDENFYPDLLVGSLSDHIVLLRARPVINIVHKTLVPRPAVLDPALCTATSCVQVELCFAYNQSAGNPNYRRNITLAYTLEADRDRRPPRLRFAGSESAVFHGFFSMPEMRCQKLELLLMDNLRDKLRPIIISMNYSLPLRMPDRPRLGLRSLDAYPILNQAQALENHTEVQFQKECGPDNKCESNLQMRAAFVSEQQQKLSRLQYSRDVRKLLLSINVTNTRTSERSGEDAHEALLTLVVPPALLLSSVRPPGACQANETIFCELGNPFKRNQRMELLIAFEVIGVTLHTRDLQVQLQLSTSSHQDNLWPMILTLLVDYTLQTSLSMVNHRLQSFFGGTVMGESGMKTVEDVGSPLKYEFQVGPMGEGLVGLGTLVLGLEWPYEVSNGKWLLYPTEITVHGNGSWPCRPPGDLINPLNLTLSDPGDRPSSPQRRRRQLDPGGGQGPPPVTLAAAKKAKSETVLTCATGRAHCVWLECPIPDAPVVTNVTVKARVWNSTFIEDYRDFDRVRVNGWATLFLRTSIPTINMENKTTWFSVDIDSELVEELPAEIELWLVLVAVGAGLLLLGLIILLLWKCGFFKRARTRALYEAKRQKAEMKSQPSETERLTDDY

Experiments:
[1] = molecular target: T1, α3β1 integrin (human, UniProt P26006 33-1051; P05556 21-798); test: immunoprecipitation (FIG. 6D)
T1 construct: whole, on cells; Endogenous receptor in cell lysates

[2] = molecular target: T2, HER2 (human, UniProt P04626 23-1255); test: co-immunoprecipitation from HNSCC, MCF10A and BT474 cell lysates
T2 construct: whole, on cells; Endogenous protein in cell lysates; also called ErbB2; HER2/Neu

[3] = molecular target: T2, HER2; test: immunoprecipitation from MCF10A or BT474 lysates, blot probed for HER2 (FIG. 5)
[4] = molecular target: T2, HER2; test: co-immunoprecipitation from cell lysates

binding [1]: binds
B1: mouse syndecan-4 (receptor, UniProt O35988 24-198, looked up)
chain: ESIRETEVIDPQDLLEGRYFSGALPDDEDAGGSDDFELSGSGDLDDTEEPRPFPEVIEPLVPLDNHIPENAQPGIRVPSEPKELEENEVIPKRAPSDVGDDMSNKVSMSSTAQGSNIFERTEVLAALIVGGVVGILFAVFLILLLVYRMKKKDEGSYDLGKKPIYKKAPTNEFYA

binding [2]: binds | binding [3]: binds | binding [4]: binds
B2: human syndecan-1 (receptor)
chain: QIVATNLPPEDQDGSGDDSDNFSGSGAGALQDITLSQQTPSTWKDTQLLTAIPTSPEPTGLEATAASTSTLPAGEGPKEGEAVVLPEVEPGLTAREQEATPRPRETTQLPTTHQASTTTATTAQEPATSHPHRDMQPGHHETSTPAGPSQADLHTPHTEDGGPSATERAAEDGASSQLPAAEGSGEQDFTFETSGENTAVVAVEPDRRNQSPVDQGATGASQGLLDRKEVLGGVIAGGLVGLIFAVCLVGFMLYRMKKKDEGSYSLEEPKQANGGAYQKPTKQEEFYA
notes: Endogenous Sdc1 of human cells, immunoprecipitated from cell lysates; also called hSdc1; Sdc1
